Reference: PubChem BioAssay AID1259425 (University of Nebraska Medical Center, 2018)
Assay: 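Compare each knockdown with KSR1 silencing using changes in marker transcripts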 (primary screen). System: HCT116 human colon cancer cells. Reagent: siRNA pool against human genes, 50 nM siRNA. Measurement: 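mRNA of six signature genes measured together by branched-DNA assay after 50 nM siRNA pool, blank removed, divided by geometric mean of two housekeeping genes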. Direction: BNIP3L mRNA: higher = more BNIP3L transcript after knockdown; NDRG1 mRNA: higher = more NDRG1 transcript after knockdown.
Here is a random part of about 14,000 reagents. Not all columns of the deposit are shown. Not stated in the record: the time to read-out.

LTA4H gave BNIP3L mRNA, set 1 = 0.109; NDRG1 mRNA, set 1 = 0.0994.
After knock-down of DGUOK, the screen gave BNIP3L mRNA, set 1 = 0.213; NDRG1 mRNA, set 1 = 0.0517.
For HPSE, the entry reads BNIP3L mRNA, set 1 = 0.104; NDRG1 mRNA, set 1 = 0.354.
FGF21 scored BNIP3L mRNA, set 1 = 0.0695; NDRG1 mRNA, set 1 = 0.0921.
DENND2A scored BNIP3L mRNA, set 1 = 0.135; NDRG1 mRNA, set 1 = 0.178.
For POLR2F, the values are BNIP3L mRNA, set 1 = 0.107; NDRG1 mRNA, set 1 = 0.498.

Not a retest: an excerpt of the list.
DGUOK | BNIP3L mRNA, set 1 = 0.213; NDRG1 mRNA, set 1 = 0.0517
HPSE | BNIP3L mRNA, set 1 = 0.104; NDRG1 mRNA, set 1 = 0.354

The list goes on:
LEFTY1 gave BNIP3L mRNA, set 1 = 0.104; NDRG1 mRNA, set 1 = 0.235.
Silencing of GDF5 gave: BNIP3L mRNA, set 1 = 0.0833; NDRG1 mRNA, set 1 = 0.0977.
For FARSB, the entry reads BNIP3L mRNA, set 1 = 0.208; NDRG1 mRNA, set 1 = 0.138.
Depletion of TBL2 gave: BNIP3L mRNA, set 1 = 0.0846; NDRG1 mRNA, set 1 = 0.275.
For SPRY3, the entry reads BNIP3L mRNA, set 1 = 0.117; NDRG1 mRNA, set 1 = 0.293.
With knock-down of EPHA5 the results were BNIP3L mRNA, set 1 = 0.0654; NDRG1 mRNA, set 1 = 0.0608.
